Laboratory results published in article doi:10.1101/2020.01.24.918458.
These are yes or no findings as the source states them, for the method shown. In cells and extracts the contact can be indirect. A yes stands for co-enrichment or nearness to the bait. Other partners may have been found. For part of these data: No binding means not detected with the bait. Values belong to the binder of their own block, whether it stands above or below them.

Amino acid sequences for entries named in this document (tags omitted).
UniProt Q99JW4: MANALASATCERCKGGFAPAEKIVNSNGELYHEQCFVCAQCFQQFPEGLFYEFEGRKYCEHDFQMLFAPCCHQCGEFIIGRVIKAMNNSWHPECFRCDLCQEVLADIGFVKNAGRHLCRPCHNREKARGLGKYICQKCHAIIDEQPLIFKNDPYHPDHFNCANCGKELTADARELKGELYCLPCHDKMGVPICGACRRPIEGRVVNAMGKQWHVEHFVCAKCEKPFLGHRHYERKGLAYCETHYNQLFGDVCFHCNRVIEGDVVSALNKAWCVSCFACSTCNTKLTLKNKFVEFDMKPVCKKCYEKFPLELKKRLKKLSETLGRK
UniProt P34152: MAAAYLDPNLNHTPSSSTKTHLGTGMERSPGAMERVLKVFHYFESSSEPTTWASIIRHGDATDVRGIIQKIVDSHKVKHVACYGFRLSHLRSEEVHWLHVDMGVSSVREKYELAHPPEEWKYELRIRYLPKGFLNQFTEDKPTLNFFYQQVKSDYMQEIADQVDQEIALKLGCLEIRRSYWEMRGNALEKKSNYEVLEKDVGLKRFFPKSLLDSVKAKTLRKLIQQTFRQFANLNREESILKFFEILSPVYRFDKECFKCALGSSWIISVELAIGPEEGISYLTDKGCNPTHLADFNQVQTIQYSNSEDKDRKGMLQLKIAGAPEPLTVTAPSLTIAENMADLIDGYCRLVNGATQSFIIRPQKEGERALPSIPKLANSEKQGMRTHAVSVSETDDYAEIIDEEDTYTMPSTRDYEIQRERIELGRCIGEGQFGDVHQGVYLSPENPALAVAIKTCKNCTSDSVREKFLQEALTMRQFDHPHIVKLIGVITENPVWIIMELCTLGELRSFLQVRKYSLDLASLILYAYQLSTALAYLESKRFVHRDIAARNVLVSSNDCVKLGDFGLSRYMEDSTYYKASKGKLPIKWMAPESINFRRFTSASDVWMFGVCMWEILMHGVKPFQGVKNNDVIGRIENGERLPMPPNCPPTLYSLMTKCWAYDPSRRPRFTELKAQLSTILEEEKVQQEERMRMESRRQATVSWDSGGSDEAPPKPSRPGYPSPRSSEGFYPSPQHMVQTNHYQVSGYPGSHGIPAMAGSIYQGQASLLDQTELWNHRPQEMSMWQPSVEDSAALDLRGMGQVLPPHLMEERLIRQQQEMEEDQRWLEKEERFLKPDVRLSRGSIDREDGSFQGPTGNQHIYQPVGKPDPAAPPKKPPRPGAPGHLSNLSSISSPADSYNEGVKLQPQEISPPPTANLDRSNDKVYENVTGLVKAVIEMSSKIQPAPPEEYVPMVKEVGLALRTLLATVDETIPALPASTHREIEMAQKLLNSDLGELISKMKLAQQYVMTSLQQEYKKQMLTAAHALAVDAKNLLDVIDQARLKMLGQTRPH
UniProt Q8VI36: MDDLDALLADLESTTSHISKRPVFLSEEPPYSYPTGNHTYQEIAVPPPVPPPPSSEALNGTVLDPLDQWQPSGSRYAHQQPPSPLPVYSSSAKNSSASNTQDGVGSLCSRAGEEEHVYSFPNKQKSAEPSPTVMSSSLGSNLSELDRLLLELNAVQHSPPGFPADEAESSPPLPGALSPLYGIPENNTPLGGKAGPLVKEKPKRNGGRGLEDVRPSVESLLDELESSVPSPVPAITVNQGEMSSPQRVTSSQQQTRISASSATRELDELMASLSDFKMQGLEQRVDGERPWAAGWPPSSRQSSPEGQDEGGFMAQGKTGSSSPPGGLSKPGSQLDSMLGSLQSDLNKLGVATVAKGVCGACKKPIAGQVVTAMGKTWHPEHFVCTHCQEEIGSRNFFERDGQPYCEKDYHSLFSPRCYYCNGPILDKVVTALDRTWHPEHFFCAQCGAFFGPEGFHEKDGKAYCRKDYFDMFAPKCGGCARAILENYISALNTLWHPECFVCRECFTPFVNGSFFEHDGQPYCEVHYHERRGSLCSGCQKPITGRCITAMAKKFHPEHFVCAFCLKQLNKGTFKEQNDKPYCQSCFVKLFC

Columns and labels:
Assay in all cases: proximity labelling
[1] = molecular target: T1, GIT1 (not stated (mouse and non-mouse baits used)) (UniProt Q68FF6)
T1 sequence: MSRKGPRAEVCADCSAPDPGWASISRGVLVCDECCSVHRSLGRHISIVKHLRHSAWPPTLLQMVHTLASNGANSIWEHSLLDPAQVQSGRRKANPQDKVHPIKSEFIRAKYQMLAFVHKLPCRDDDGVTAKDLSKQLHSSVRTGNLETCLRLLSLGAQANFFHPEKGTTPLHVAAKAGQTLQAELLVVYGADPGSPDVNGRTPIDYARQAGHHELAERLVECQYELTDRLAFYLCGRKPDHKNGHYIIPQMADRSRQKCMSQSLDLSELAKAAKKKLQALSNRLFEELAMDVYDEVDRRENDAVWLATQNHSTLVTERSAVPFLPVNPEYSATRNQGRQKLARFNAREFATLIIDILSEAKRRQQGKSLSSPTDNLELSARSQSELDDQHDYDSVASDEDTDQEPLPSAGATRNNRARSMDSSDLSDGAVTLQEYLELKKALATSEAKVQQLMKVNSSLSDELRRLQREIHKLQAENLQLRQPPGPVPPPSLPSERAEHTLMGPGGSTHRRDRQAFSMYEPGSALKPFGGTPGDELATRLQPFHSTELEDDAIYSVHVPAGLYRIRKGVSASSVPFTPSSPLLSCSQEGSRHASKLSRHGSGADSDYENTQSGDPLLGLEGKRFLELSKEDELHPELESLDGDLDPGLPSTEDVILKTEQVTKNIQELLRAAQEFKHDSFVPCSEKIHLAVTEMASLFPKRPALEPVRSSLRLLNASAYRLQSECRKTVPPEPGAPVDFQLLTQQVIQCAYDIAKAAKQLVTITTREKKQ

[2] = molecular target: T2, α-parvin (not stated (mouse and non-mouse baits used)) (UniProt Q9EPC1)
T2 sequence: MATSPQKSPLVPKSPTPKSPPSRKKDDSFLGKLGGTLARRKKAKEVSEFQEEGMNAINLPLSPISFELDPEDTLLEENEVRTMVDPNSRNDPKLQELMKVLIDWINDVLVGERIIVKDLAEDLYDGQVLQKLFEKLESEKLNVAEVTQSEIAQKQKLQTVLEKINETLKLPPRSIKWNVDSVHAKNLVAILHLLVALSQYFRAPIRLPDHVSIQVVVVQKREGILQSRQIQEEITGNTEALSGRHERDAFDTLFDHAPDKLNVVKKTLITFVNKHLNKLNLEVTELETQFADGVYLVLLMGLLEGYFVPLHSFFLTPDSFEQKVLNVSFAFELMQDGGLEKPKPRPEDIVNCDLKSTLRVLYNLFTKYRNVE

[3] = molecular target: T3, ILK (not stated (mouse and non-mouse baits used)) (UniProt O55222)
T3 sequence: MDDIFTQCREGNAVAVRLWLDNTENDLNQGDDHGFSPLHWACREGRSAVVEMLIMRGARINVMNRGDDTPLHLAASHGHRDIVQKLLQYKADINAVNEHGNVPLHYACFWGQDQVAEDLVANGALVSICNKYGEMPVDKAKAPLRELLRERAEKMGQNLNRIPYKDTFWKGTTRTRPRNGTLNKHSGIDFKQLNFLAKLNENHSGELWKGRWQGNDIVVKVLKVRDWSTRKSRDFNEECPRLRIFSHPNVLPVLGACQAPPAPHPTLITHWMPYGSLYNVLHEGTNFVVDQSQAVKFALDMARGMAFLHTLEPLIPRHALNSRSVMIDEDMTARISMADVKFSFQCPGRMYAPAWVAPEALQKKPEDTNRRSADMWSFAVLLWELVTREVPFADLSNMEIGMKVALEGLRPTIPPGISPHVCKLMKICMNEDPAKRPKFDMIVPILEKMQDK

[4] = molecular target: PINCH (not stated (mouse and non-mouse baits used)) (UniProt Q99JW4)
[5] = molecular target: FAK (not stated (mouse and non-mouse baits used)) (UniProt P34152)
[6] = molecular target: paxillin (not stated (mouse and non-mouse baits used)) (UniProt Q8VI36)

- binding [3]: binds
- binding [4]: binds
B3: α-parvin (protein, UniProt Q9EPC1 1-372)
chain: T2 sequence

- binding [5]: binds
- binding [6]: binds
B4: p130Cas (protein, UniProt Q61140 1-874)
chain: MTVPNVLAKALYDNVAESPDELSFRKGDIMTVLERDTQGLDGWWLCSLHGRQGIVPGNRLKILVGMYDKKPVGPGPGPPATPPQPQPSLPQGVHAPVPPASQYSPMLPTAYQPQSDNVYLVPTPSKTQQGLYQAPGPNPQFQSPPAKQTSTFSKQTPHHSFPSPATDLYQVPPGPGSPAQDIYQVPPSAGIGHDIYQVPPSLDTRGWEGTKPPAKVVVPTRVGQGYVYEAAQTEQDEYDTPRHLLAPGPQDIYDVPPVRGLLPNQYGQEVYDTPPMAVKGPNGRDPLLDVYDVPPSVEKGLLSSSHHSVYDVPPSVSKDVPDGPLLREETYDVPPAFAKPKPFDPTRHPLILAAPPPDSPAAEDVYDVPPPAPDLYDVPPGLRRPGPGTLYDVPRERVLPPEVADGSVVDDGVYAVPPPAEREAPTDGKRLSASSTGSTRSSQSASSLEVVVPGREPLELEVAVESLARLQQGVSTTVAHLLDLVGSASGPGGWRGTSEPQEPPAQDLKAAVAAVHGAVHELLEFARGAVSNATHTSDRTLHAKLSRQLQKMEDVYQTLVVHGQVLDSGRGSPGFTPEDLDRLVACSRAVPEDAKQLASFLHGNASLLFRRTKAPGPGPEGSSSLHPNPTDKASSIQSRPLPSPPKFTSQDSPDGQYENSEGGWMEDYDYVHLQGKEEFEKTQKELLERGNIMRQGKGQLELQQLKQFERLEQEVSRPIDHDLANWTPAQPLVPGRTGGLGPSDRQLLLFYLEQCEANLTTLTDAVDAFFTAVATNQPPKIFVAHSKFVILSAHKLVFIGDTLSRQAKAADVRSQVTHYSNLLCDLLRGIVATTKAAALQYPSPSAAQDMVDRVKELGHSTQQFRRVLGQLAAA

Second part, the binder before the results:

B1: LL5-β (protein, UniProt Q8K1N2 1-1249)
chain: MAEDSHMQKQLEFQNGSLEEGFVVRSLENEPQNMMESLSPRKYSSSLKFKANGDYSGSYLTLSQPVSAKRSPSPMGTSVRSSPSLAKIQGSKQFCDGIDKNISMKPPISFLSSAASLGGYPLGKADLDHYTGRDSERSTRLSEKPPYSRYSSRNKSHDSVYFLGGLEGRKTSGSLLTMWNGNSLSCTGSSPISRSGAASMPSSPKQVRKMNLQDHSTLQPRLSRHKEPASENVSVRTRKYSGSSLSNMGAYSRSLPRLYKATDNQMSPLSLPPRSSLGNSRRGQLGEKDLPHSLVDSDNYLNFSSLSSGASPYKTCLSEGNPYVSSALSVPASPRVARKMLLASTSSDDFDRASYSGTSPSHSFISGEPDRVLVARRNFSCGSMELDDSDLESLRQSSETPQPVLRERKSSISSISGRDDLMDYHRRQREERLREQEMERLERQRLETILSLCAEYTKPEGRRLSAGTTVADVQKINKELEKLQLSDEESVFEDALVCPDARYRCHRKGSLQDVDVAGFGNLGHSASFLAPRGSRSDELLGDLTRTPPSSSAAFLKATNESSYLSILPKTPEDIGEEQRTQELAAMEDARMVILNNLEELEQKIKDINDQMDESSRELDMECALLDGEQKSETAELMKEKEILDHLNRKITELEKNIVGEKTKEKVKLDAEREKLERLQELYSEQKTQLDNCPESMREQLQQQLKRDADLLDVESKHFEDLEFQQLEHESRLDEEKENLTQQLLREVAEYQRNIVARKEKISALKKQASHIVQQAQREQDHFVKEKNNLIMMLQREKENLCNLEKKYSSLTGGKGFPINPNTLKEGYISVNEINESCGNSTNLSPSTQFPADADAAVTEPALAVPVSQPQSSEHFRSLEERKKQHKEGLYLSDTLPRKKTTPSLSPHFSSATMGRSTTPKAHLPLGQSNSCGSVLPHSLATMTKDSESRRMLRGYNHQQMSEGQRQKPEFYSRTASESNVYLNSFHYPDRSYKDQAYDTLSLDSSDSMETSISACSPDNISSASTSNIARIEEMERLLKQAHAEKTRLLESREREMEAKKRALEEEKRRREILEKRLQEETSQRQKLIEKEVKIREKQRAQARPLTRYLPVRKEDFDLRSHVETAGHNIDTCFHVSITEKTCRGYLIKMGGKIKTWKKRWFVFDRNKRTFSYYADKHEAKLKGVIYFQAIEEVYYDHLKNANKSPNPLLTFSVKTHDRIYYMVAPSPEAMRIWMDVIVTGAEGYTHFLL
- binding [1]: binds

B2: liprin-β1 (protein, UniProt Q8C8U0 1-969)
chain: MMSDASDMLAAALEQMDGIIAGSKALEYSNGIFDCQSPTSPFMGSLRALHLVEDLRGLLEMMETDEKEGLRCQIPDSTAEVLIEWLQNQMTNGHLPGNGDVYQERLARLENDKESLVLQVSVLTDQVEAQGEKIRDLEFCLEEHREKLNATEEMLQQELLSRTSLETQKLELMAEISNLKLKLTAVEKDRLDYEDRFRDTEGLIQEINDLRLKVNEMDGERLQYEKKLKSTKDELASLKEQLEEKECEVKRLQERLVCKAKGEGIEVLDRDIEVQKMKKAVESLMAANEEKERKIEDLRQCLSRYRKMQDPAVLAQGQDSECEGLFHSSSISTLLDAQGFSDLERSTSSTPGMGSPSRDLLHTSAPEEFHTSVLQASIPSLLPPSVDVDTCEKPKLPTKPETSFEEGDGRAILGAAAEVSLSDGVSTSSLQKSSSLGNLKKEASDGTDKAPTDSRTFGTLPPKVPGHEASVDDNPFGTRKARSSFGRGFFKIKSGKRTASAPNLAETEKETAEHLNLAGTSRSKGSQGTSPFPMSPPSPDSRKKSRGIMRLFGKLRRSQSTTFNPDDMSEPEFKRGGTRATAGPRLGWSRDLGQSNSDLDMPFAKWTKEQVCSWLAEQGLGSYLSSGKHWIISGQTLLQASQQDLEKELGIKHSLHRKKLQLALQALGSEEETNYGKLDFNWVTRWLDDIGLPQYKTQFDEGRVDGRMLHYMTVDDLLSLKVVSVLHHLSIKRAIQVLRINNFEPNCLRRRPSDENSITPSEVQQWTNHRVMEWLRSVDLAEYAPNLRGSGVHGGLMVLEPRFNVETMAQLLNIPPNKTLLRRHLATHFNLLIGAEAQHQKRDAMELPDYVLLTATAKVKPKKLTFSNFGNLRKKKHEDGEEYVCPMELGQASGSSQKGFRPGLDMRLYEEDDLDRLEQMEDSEGTVRQIGAFSEGINNLTHMLKEDDMFKDFAARSPSASITDEDSNV
- binding [2]: binds

B5: GIT1 (protein, UniProt Q68FF6 1-770)
chain: T1 sequence
- binding [3]: no binding
- binding [4]: no binding
- binding [2]: no binding
